Patent US12054509B2, “Antimicrobial compounds, compositions, and uses thereof” (Lakewood Amedex, Inc., priority 2017, dated 2024)
Some results were stated once for a whole list of compounds, not compound by compound.

Legend:
Type in all cases: cell-based
[1] = test system: methicillin susceptible S. aureus (ATCC 29213); test: Bacterial cytological profiling at pH 4, 5.5, 7 (Example 8), S. aureus; conditions: for cell viability: pH 4; for effect on cell permeability: pH 5.5 and 7, 125 mg/mL and 250 mg/mL
Procedure: (§1) This bacterial cytological profiling (BCP) investigation uses methods and materials described previously by Nonejuie, P., Burkart, M., Poglianoa, K., Pogiano, J. (2013). Bacterial cytological profiling rapidly identifies the cellular pathways targeted by antibacterial molecules. Proc. Natl. Acad. Sci. U.S.A. 110(40):16169-16174. doi: 10.1073/pnas.1311066110.
(§2) For viable cell counts, cells are grown to OD600≈0.4 and diluted 1:1 into buffered or unbuffered media containing various compound concentrations. Samples are then collected and serially diluted (1:10) on a 96 well plate. Five microliters from each well are spotted on LB plates, incubated at 30° C., and viable cells are counted the next day.
(§3) Samples are collected at 10, 30, 120, and 240 min of exposure for viable cell count and imaging. For imaging, E. coli and S. aureus 200 μL of treated cells per time point are stained with 0.8 μg/mL FM4-64, 1.5 μg/mL DAPI, and 0.4 μM SYTOXGreen (Molecular Probes/Invitrogen). P. aeruginosa samples are stained 0.4 μM SYTOX Green, 28 μg/mL DAN, and 1 μg/mL FM 4-64. Cells are transferred to an agarose pad (20% LB, 1% agarose) for imaging.
(§4) For Nu-3 and Nu-8 stocks (at pH 4, 5.5 and 7), stock concentration is 500 mg/mL. For pH 4, the stocks are prepared by dissolving Nu-3 in 25 mM citrate buffer and Nu-8 in 350 mM citric acid. For pH 5.5, the stocks are prepared by dissolving Nu-3 in 25 mM citric-phosphate and Nu-8 in 25 mM critic. For pH 7, the stocks are prepared by dissolving Nu-3 and Nu-8 in 25 mM Sorensen phosphate buffer. 2×LB (lysogeny broth) solutions are prepared with 50 mM citrate buffer for pH 4, 50 mM citrate-phosphate buffer for pH 5.5, and 50 mM Sorensen phosphate buffer for pH 7.

[2] = test system: wild type P. aeruginosa (PAO1; K2732); test: Bacterial cytological profiling at pH 4, 5.5, 7 (Example 8), P. aeruginosa
Procedure: as §1, §2, §3, §4

[3] = test system: wild type E. coli (ATCC 25922); test: Bacterial cytological profiling at pH 4, 5.5, 7 (Example 8), E. coli
Procedure: as §1, §2, §3
For Nu-3 and Nu-8 stocks (at pH 4, 5.5 and 7), stock concentration is 500 mg/mL. For pH 4, the stocks are prepared by dissolving Nu-3 in 25 mM citrate buffer and Nu-8 in 350 mM citric acid. […]

E. coli (ATCC 25922) = test: Time kill assay in saline at pH 3.5 (Example 27)
Procedure: Log10 5 CFU of E. coli (ATCC 25922) were suspended in saline. Additionally, a sample of the saline only was prepared as a vehicle control (V.C.). Solutions of Nu-3, Nu-8, and Nu-10 at varying concentrations were adjusted to pH 3.5 with citric acid and added to the E. coli suspensions. At each time point (0, 1, 2.5, 5, 10, and 20 minutes), the treated bacterial suspensions were plated and incubated for 24 hrs, and each plate was read to determine the CFU count.
Tables 12-14 provide the time kill assay data for Nu-3 (Table 12), Nu-8 (Table 13) and Nu-10 (Table 14) against E. coli.

SMILES	cell viability ([1]; 250 mg/mL, within 240 min to 24 h)	effect on cell permeability [1] [%]	cell viability ([2]; 112.5 mg/mL, within 120 min)	cell viability ([3]; 225 mg/mL, within 240 min)	time to complete kill of the bacteria (E. coli (ATCC 25922); concentration of 2.5%) [min]	cell viability ([1]; 125 mg/mL, at 24 h)	cell viability ([1]; 250 mg/mL, later, without recovery)	cell viability ([2]; 56.5 mg/mL, within 30 min)	cell viability ([2]; 112.5 mg/mL, within 10 min)	cell viability ([3]; 112.5 and 225 mg/mL, within 10 min, from log 10^7 CFU/mL)	time to complete kill of the bacteria (E. coli (ATCC 25922); concentration of 0.1%) [min]
CCCCOP(=O)(O)OC[C@H]1O[C@@H](n2cc(C)c(=O)[nH]c2=O)C[C@@H]1OP(=O)(O)OCCCC [Nu-3, reference compound]	< 10^3 CFU/mL	< 5	< 10^3 CFU/mL	< 10^3 CFU/mL	≤ 10						
CCCCOP(=O)(O)OC[C@H]1O[C@@H](n2ccc(N)nc2=O)C[C@@H]1OP(=O)(O)OCCCC [Nu-8, sodium ((2R,3S,5R)-5-(4-amino-2-oxopyrimidin-1(2H)-yl)-3-((butoxyoxidophosphor-yl)oxy)tetrahydrofuran-2-yl)methyl butyl phosphate]		< 5				< 10^3 CFU/mL	< 10^3 CFU/mL	< 10^3 CFU/mL	< 10^3 CFU/mL	< 10^3 CFU/mL	
CCCCOP(=O)(O)OC[C@H]1O[C@@H](n2ccc(N)nc2=O)[C@H](OC)[C@@H]1OP(=O)(O)OCCCC [Nu-10, ((2R,3R,4R,5R)-5-(4-amino-2-oxopyrimidin-1(2H)-yl)-3-((butoxy(hydroxy)phosphoryl)oxy)-4-methoxytetrahydrofuran-2-yl)methyl butyl hydrogen phosphate]											≤ 10
